Reference: the supplement of paper PMC8728848
Some of the results follow.

What was measured:
Assay in all cases: glycan array binding signal (z-score within array); higher = stronger binding
Settings in all cases: glycan notation: IUPAC condensed, linker removed
[1] = biological target: Fuc(a1-2)Gal6S(b1-3)GlcNAc6S
Summary of the method: (§1)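 Glycan array data came from 3228 arrays in the Consortium for Functional Glycomics database, and only arrays with an available protein sequence were kept. Glycan names were put into IUPAC-condensed notation, and columns mapping to the same glycan were averaged. The binding signal is a within-array Z-score, averaged across arrays of one protein sequence run at different concentrations or buffers and across linkers. A negative Z-score can be read as non-binding.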

Fuc(a1-2)Gal6S(b1-4)Glc = biological target: Fuc(a1-2)Gal6S(b1-4)Glc
Summary of the method: as §1

[2] = biological target: Fuc(a1-2)Gal6S(b1-4)Glc6S
Summary of the method: as §1

Fuc(a1-2)[Gal(a1-3)]Gal = biological target: Fuc(a1-2)[Gal(a1-3)]Gal
Summary of the method: as §1

[3] = biological target: Fuc(a1-2)[Gal(a1-3)]Gal(b1-3)GalNAc
Summary of the method: as §1

[4] = biological target: Fuc(a1-2)[Gal(a1-3)]Gal(b1-3)GalNAc(b1-3)Gal(a1-4)Gal(b1-4)Glc
Summary of the method: as §1

[5] = biological target: Fuc(a1-2)[Gal(a1-3)]Gal(b1-3)GlcNAc
Summary of the method: as §1

[6] = biological target: Fuc(a1-2)[Gal(a1-3)]Gal(b1-3)GlcNAc(b1-2)Man(a1-3)[Fuc(a1-2)[Gal(a1-3)]Gal(b1-3)GlcNAc(b1-2)Man(a1-6)]Man(b1-4)GlcNAc(b1-4)GlcNAc
Summary of the method: as §1

[7] = biological target: Fuc(a1-2)[Gal(a1-3)]Gal(b1-3)GlcNAc(b1-2)Man(a1-3)[Fuc(a1-2)[Gal(a1-3)]Gal(b1-3)GlcNAc(b1-2)Man(a1-6)]Man(b1-4)GlcNAc(b1-4)[Fuc(a1-6)]GlcNAc
Summary of the method: as §1

[8] = biological target: Fuc(a1-2)[Gal(a1-3)]Gal(b1-3)GlcNAc(b1-3)GalNAc
Summary of the method: as §1

[9] = biological target: Fuc(a1-2)[Gal(a1-3)]Gal(b1-3)GlcNAc(b1-6)GalNAc
Summary of the method: as §1

[10] = biological target: Fuc(a1-2)[Gal(a1-3)]Gal(b1-4)Glc
Summary of the method: as §1

[11] = biological target: Fuc(a1-2)[Gal(a1-3)]Gal(b1-4)GlcNAc
Summary of the method: as §1

[12] = biological target: Fuc(a1-2)[Gal(a1-3)]Gal(b1-4)GlcNAc(b1-2)Man
Summary of the method: as §1

[13] = biological target: Fuc(a1-2)[Gal(a1-3)]Gal(b1-4)GlcNAc(b1-2)Man(a1-3)[Fuc(a1-2)[Gal(a1-3)]Gal(b1-4)GlcNAc(b1-2)Man(a1-6)]Man(b1-4)GlcNAc(b1-4)GlcNAc
Summary of the method: as §1

[14] = biological target: Fuc(a1-2)[Gal(a1-3)]Gal(b1-4)GlcNAc(b1-2)Man(a1-3)[Fuc(a1-2)[Gal(a1-3)]Gal(b1-4)GlcNAc(b1-2)Man(a1-6)]Man(b1-4)GlcNAc(b1-4)[Fuc(a1-6)]GlcNAc
Summary of the method: as §1

[15] = biological target: Fuc(a1-2)[Gal(a1-3)]Gal(b1-4)GlcNAc(b1-3)GalNAc
Summary of the method: as §1

[16] = biological target: Fuc(a1-2)[Gal(a1-3)]Gal(b1-4)GlcNAc(b1-3)[Fuc(a1-2)[Gal(a1-3)]Gal(b1-4)GlcNAc(b1-6)]GalNAc
Summary of the method: as §1

[17] = biological target: Fuc(a1-2)[Gal(a1-3)]Gal(b1-4)GlcNAc(b1-6)GalNAc
Summary of the method: as §1

[18] = biological target: Fuc(a1-2)[Gal(a1-3)]Gal(b1-4)[Fuc(a1-3)]Glc
Summary of the method: as §1

[19] = biological target: Fuc(a1-2)[Gal(a1-3)]Gal(b1-4)[Fuc(a1-3)]GlcNAc
Summary of the method: as §1

[20] = biological target: Fuc(a1-2)[Gal(a1-3)]Gal(b1-4)[Fuc(a1-3)]GlcNAc(b1-3)GalNAc
Summary of the method: as §1

[21] = biological target: Fuc(a1-2)[Gal(a1-4)]Gal(b1-4)GlcNAc
Summary of the method: as §1

[22] = biological target: Fuc(a1-2)[GalNAc(a1-3)]Gal
Summary of the method: as §1

[23] = biological target: Fuc(a1-2)[GalNAc(a1-3)]Gal(b1-3)GalNAc(a1-3)[Fuc(a1-2)]Gal(b1-4)GlcNAc
Summary of the method: as §1

[24] = biological target: Fuc(a1-2)[GalNAc(a1-3)]Gal(b1-3)GalNAc(b1-3)Gal(a1-4)Gal(b1-4)Glc
Summary of the method: as §1

[25] = biological target: Fuc(a1-2)[GalNAc(a1-3)]Gal(b1-3)GlcNAc
Summary of the method: as §1

[26] = biological target: Fuc(a1-2)[GalNAc(a1-3)]Gal(b1-3)GlcNAc(b1-2)Man(a1-3)[Fuc(a1-2)[GalNAc(a1-3)]Gal(b1-3)GlcNAc(b1-2)Man(a1-6)]Man(b1-4)GlcNAc(b1-4)GlcNAc
Summary of the method: as §1

[27] = biological target: Fuc(a1-2)[GalNAc(a1-3)]Gal(b1-3)GlcNAc(b1-2)Man(a1-3)[Fuc(a1-2)[GalNAc(a1-3)]Gal(b1-3)GlcNAc(b1-2)Man(a1-6)]Man(b1-4)GlcNAc(b1-4)[Fuc(a1-6)]GlcNAc
Summary of the method: as §1

[28] = biological target: Fuc(a1-2)[GalNAc(a1-3)]Gal(b1-3)GlcNAc(b1-3)GalNAc
Summary of the method: as §1

[29] = biological target: Fuc(a1-2)[GalNAc(a1-3)]Gal(b1-3)GlcNAc(b1-6)GalNAc
Summary of the method: as §1

[30] = biological target: Fuc(a1-2)[GalNAc(a1-3)]Gal(b1-4)Glc
Summary of the method: as §1

[31] = biological target: Fuc(a1-2)[GalNAc(a1-3)]Gal(b1-4)GlcNAc
Summary of the method: as §1

[32] = biological target: Fuc(a1-2)[GalNAc(a1-3)]Gal(b1-4)GlcNAc(b1-2)Man
Summary of the method: as §1

[33] = biological target: Fuc(a1-2)[GalNAc(a1-3)]Gal(b1-4)GlcNAc(b1-2)Man(a1-3)[Fuc(a1-2)[GalNAc(a1-3)]Gal(b1-4)GlcNAc(b1-2)Man(a1-6)]Man(b1-4)GlcNAc(b1-4)GlcNAc
Summary of the method: as §1

[34] = biological target: Fuc(a1-2)[GalNAc(a1-3)]Gal(b1-4)GlcNAc(b1-2)Man(a1-3)[Fuc(a1-2)[GalNAc(a1-3)]Gal(b1-4)GlcNAc(b1-2)Man(a1-6)]Man(b1-4)GlcNAc(b1-4)[Fuc(a1-6)]GlcNAc
Summary of the method: as §1

[35] = biological target: Fuc(a1-2)[GalNAc(a1-3)]Gal(b1-4)GlcNAc(b1-3)Gal(b1-4)GlcNAc
Summary of the method: as §1

[36] = biological target: Fuc(a1-2)[GalNAc(a1-3)]Gal(b1-4)GlcNAc(b1-3)Gal(b1-4)GlcNAc(b1-3)Gal(b1-4)GlcNAc
Summary of the method: as §1

[37] = biological target: Fuc(a1-2)[GalNAc(a1-3)]Gal(b1-4)GlcNAc(b1-3)GalNAc
Summary of the method: as §1

[38] = biological target: Fuc(a1-2)[GalNAc(a1-3)]Gal(b1-4)GlcNAc(b1-3)[Fuc(a1-2)[GalNAc(a1-3)]Gal(b1-4)GlcNAc(b1-6)]GalNAc
Summary of the method: as §1

[39] = biological target: Fuc(a1-2)[GalNAc(a1-3)]Gal(b1-4)GlcNAc(b1-6)GalNAc
Summary of the method: as §1

[40] = biological target: Fuc(a1-2)[GalNAc(a1-3)]Gal(b1-4)[Fuc(a1-3)]GlcNAc
Summary of the method: as §1

[41] = biological target: Fuc(a1-2)[GalNAc(a1-3)]Gal(b1-4)[Fuc(a1-3)]GlcNAc(b1-3)GalNAc
Summary of the method: as §1

[42] = biological target: Fuc(a1-2)[GalNAc(a1-4)]Gal(b1-4)GlcNAc
Summary of the method: as §1

[43] = biological target: Fuc(a1-2)[GalNAc(b1-3)]Gal
Summary of the method: as §1

B1: PX14343E-bfa-545-24-545 (Bacteroides fragilis) (protein)
chain: LDRYPQEELSDGSFWKTPDDANKVVSDLYGYLSTWDQDNDINSDNATMGIKWAAGNVSKGIYDPADQGWSGDYANVRQCNLILSKIDEIPDYPEADKTKALGQVYFFRAYIYFNLIRSFGDVPYIDKPLDLKDMEGITRMPRAEVYEKIMADFDKAIAALPTEWGASDYGRVTKGAAMAMKARAALYYGNWDTAATEAKNVMDLGLYELYDKDNTGKYAELFWEKADGCDEFILVTQFNYPDKTHYLMGWECFPTKGWGGMNPTQSLVDAFEDSEGAPISKSKIYDPTDPFKNRDPRLEVDILHDGEEMYGVTIKVAPLASSGSTGINQHNDATETGYYGQKWLDPSLDPLSDGWNMGKDWVHIRYAEVLLTYAEAKNELQGLDPEAFDAVNQVRRRVGMPELQNTDPSKPTYCATQDDLRQRIRNEWRVEFCLEGGKRMWDIRRWGIAKDVLNAPFEGLKYKIVDNPNDPDKKVDGGKMCILYQGDPIILSGSRYSDNNYLFPVPQSEIDLNPALTQNPGY
- glycan array binding signal (z-score) [1]: 0.338
- glycan array binding signal (z-score) (Fuc(a1-2)Gal6S(b1-4)Glc): 0.521
- glycan array binding signal (z-score) [2]: 0.393
- glycan array binding signal (z-score) (Fuc(a1-2)[Gal(a1-3)]Gal): -0.399
- glycan array binding signal (z-score) [3]: 0.163
- glycan array binding signal (z-score) [4]: -0.61
- glycan array binding signal (z-score) [5]: -0.073
- glycan array binding signal (z-score) [6]: -0.083
- glycan array binding signal (z-score) [7]: 0.769
- glycan array binding signal (z-score) [8]: -0.915
- glycan array binding signal (z-score) [9]: -0.703
- glycan array binding signal (z-score) [10]: -0.083
- glycan array binding signal (z-score) [11]: -0.855
- glycan array binding signal (z-score) [12]: -0.477
- glycan array binding signal (z-score) [13]: 0.381
- glycan array binding signal (z-score) [14]: 0.008
- glycan array binding signal (z-score) [15]: 0.425
- glycan array binding signal (z-score) [16]: 0.335
- glycan array binding signal (z-score) [17]: 0.034
- glycan array binding signal (z-score) [18]: -1
- glycan array binding signal (z-score) [19]: -0.721
- glycan array binding signal (z-score) [20]: -0.403
- glycan array binding signal (z-score) [21]: 0.32
- glycan array binding signal (z-score) [22]: -0.063
- glycan array binding signal (z-score) [23]: -0.41
- glycan array binding signal (z-score) [24]: -0.347
- glycan array binding signal (z-score) [25]: -0.23
- glycan array binding signal (z-score) [26]: 0.794
- glycan array binding signal (z-score) [27]: -0.147
- glycan array binding signal (z-score) [28]: 0.051
- glycan array binding signal (z-score) [29]: -0.998
- glycan array binding signal (z-score) [30]: -0.466
- glycan array binding signal (z-score) [31]: -0.287
- glycan array binding signal (z-score) [32]: -0.621
- glycan array binding signal (z-score) [33]: 1.44
- glycan array binding signal (z-score) [34]: 0.994
- glycan array binding signal (z-score) [35]: -0.646
- glycan array binding signal (z-score) [36]: -0.373
- glycan array binding signal (z-score) [37]: -0.508
- glycan array binding signal (z-score) [38]: -0.307
- glycan array binding signal (z-score) [39]: 0.103
- glycan array binding signal (z-score) [40]: 0.004
- glycan array binding signal (z-score) [41]: 0.635
- glycan array binding signal (z-score) [42]: -0.813
- glycan array binding signal (z-score) [43]: -0.716
